From article PMC10315710, “Diacylglycerol kinase ζ interacts with sphingomyelin synthase 1 and sphingomyelin synthase‐related protein via different regions” (FEBS Open Bio, 2023) come the findings set out here.

Results are given in words; binding and its absence hold for the method and conditions named. Binding seen in cells or lysates may run through a third protein. Sequences can lack the tags named with a protein.

What all share (assay): co-IP; HEK293 cell lysates expressing V5-tagged SMS1, SMS2 or SMSr and 3×FLAG-tagged DGK isozymes; immunoprecipitation with anti-V5 antibody and Protein A/G PLUS-agarose; western blot with anti-FLAG and anti-V5
Background: In western blotting, separated proteins are transferred to a membrane and probed.

Assay [1] has as its target T1, SMS1‐V5 (C-terminal V5-tagged human sphingomyelin synthase 1) (human) (UniProt Q86VZ5).
T1 sequence: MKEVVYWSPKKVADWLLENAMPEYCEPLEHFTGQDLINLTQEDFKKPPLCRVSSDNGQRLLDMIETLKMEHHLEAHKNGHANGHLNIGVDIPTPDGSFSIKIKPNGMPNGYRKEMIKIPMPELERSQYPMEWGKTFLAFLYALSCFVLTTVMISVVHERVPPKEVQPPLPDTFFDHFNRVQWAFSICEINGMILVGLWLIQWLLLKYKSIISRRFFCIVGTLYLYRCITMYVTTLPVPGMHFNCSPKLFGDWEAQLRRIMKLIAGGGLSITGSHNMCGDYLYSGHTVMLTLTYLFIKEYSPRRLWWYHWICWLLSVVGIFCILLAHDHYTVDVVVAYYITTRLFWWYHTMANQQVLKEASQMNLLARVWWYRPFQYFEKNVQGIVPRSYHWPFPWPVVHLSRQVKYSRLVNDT

The target in assay [2] is T2, SMS2‐V5 (C-terminal V5-tagged human sphingomyelin synthase 2) (human) (UniProt Q8NHU3).
T2 sequence: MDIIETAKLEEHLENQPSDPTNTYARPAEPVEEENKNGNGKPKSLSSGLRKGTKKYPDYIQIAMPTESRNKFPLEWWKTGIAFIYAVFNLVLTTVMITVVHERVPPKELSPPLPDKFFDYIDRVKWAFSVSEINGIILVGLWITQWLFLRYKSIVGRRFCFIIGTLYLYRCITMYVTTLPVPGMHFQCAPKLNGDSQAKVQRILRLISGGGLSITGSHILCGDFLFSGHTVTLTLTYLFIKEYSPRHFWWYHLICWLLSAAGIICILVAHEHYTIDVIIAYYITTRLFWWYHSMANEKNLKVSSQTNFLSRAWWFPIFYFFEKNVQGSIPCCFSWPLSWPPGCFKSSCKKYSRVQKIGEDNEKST

Assay [3] has as its target T3, SMSr‐V5 (C-terminal V5-tagged human sphingomyelin synthase-related protein) (human) (UniProt Q96LT4).
T3 sequence: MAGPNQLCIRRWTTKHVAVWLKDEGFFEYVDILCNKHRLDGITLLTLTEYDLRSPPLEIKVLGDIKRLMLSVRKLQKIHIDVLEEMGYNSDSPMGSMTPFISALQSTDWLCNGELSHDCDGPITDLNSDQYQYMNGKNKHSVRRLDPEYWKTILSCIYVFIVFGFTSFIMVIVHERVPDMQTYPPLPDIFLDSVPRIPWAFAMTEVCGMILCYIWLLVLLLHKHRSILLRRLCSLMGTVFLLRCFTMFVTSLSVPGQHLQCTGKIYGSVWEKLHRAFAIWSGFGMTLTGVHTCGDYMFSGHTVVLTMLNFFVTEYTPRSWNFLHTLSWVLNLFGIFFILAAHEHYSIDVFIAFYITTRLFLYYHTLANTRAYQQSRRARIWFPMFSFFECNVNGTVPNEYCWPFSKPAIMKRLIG

As to 3×FLAG‐DGKθ (enzyme), the binding entry in assay [1], in assay [2] and in assay [3] was “no binding” throughout.
Consider 3×FLAG‐DGKι (enzyme), for which the binding entry in assay [1], in assay [2] and in assay [3] was “no binding” in each case.
As to 3×FLAG‐DGKη1 (enzyme), the binding entry in assay [1], in assay [2] and in assay [3] was “no binding” throughout.
Regarding 3×FLAG‐DGKγ (enzyme), the binding entry in assay [1], in assay [2] and in assay [3] was “no binding” each time.
On to 3×FLAG‐DGKα (enzyme), for which the binding result in assay [1], in assay [2] and in assay [3] was “no binding” in each case.
Take 3×FLAG‐DGKε (enzyme): the binding entry in assay [1] and in assay [3] was “no binding” throughout.
